We go through 4 substances from publication PMC8421392.

Protein sequences, listed by entry. Tags and fused reporters are not part of them. Residues count along the entry.
UniProt Q60751, residues 31-1373: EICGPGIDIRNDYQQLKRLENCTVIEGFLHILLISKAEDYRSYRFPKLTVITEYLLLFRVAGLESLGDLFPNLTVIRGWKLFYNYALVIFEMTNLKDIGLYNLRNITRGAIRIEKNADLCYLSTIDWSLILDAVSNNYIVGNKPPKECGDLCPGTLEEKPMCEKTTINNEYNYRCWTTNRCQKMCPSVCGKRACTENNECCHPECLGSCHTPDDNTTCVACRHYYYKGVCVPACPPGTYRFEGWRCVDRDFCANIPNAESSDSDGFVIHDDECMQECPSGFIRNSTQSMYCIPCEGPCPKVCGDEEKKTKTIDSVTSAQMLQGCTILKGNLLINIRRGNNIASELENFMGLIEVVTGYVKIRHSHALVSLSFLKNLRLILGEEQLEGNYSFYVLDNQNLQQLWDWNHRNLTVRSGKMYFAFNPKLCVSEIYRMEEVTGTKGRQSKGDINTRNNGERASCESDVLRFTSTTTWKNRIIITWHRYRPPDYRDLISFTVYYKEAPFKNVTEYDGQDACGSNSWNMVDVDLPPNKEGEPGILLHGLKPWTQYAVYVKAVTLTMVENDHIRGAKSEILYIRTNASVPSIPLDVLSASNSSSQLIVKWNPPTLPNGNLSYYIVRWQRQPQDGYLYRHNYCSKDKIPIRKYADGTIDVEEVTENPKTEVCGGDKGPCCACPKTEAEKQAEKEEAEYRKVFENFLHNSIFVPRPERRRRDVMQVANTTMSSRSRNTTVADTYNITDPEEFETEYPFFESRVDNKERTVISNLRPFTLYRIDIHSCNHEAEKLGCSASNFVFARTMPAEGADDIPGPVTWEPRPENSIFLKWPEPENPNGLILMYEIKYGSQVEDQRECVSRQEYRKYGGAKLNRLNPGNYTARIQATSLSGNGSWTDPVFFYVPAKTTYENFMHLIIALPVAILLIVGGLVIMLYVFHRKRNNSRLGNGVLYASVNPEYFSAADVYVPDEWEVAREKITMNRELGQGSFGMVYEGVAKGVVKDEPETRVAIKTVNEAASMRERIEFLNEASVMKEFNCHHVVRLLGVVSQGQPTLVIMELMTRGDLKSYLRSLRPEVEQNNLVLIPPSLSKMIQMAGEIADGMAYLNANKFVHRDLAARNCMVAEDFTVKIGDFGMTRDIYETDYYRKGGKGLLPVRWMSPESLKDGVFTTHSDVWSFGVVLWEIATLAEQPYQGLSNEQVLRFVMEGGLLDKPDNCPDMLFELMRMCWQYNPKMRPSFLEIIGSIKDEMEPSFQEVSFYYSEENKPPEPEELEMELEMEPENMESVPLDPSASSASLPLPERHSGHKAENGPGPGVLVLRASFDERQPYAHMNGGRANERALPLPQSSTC
UniProt P06213, residues 28-1382: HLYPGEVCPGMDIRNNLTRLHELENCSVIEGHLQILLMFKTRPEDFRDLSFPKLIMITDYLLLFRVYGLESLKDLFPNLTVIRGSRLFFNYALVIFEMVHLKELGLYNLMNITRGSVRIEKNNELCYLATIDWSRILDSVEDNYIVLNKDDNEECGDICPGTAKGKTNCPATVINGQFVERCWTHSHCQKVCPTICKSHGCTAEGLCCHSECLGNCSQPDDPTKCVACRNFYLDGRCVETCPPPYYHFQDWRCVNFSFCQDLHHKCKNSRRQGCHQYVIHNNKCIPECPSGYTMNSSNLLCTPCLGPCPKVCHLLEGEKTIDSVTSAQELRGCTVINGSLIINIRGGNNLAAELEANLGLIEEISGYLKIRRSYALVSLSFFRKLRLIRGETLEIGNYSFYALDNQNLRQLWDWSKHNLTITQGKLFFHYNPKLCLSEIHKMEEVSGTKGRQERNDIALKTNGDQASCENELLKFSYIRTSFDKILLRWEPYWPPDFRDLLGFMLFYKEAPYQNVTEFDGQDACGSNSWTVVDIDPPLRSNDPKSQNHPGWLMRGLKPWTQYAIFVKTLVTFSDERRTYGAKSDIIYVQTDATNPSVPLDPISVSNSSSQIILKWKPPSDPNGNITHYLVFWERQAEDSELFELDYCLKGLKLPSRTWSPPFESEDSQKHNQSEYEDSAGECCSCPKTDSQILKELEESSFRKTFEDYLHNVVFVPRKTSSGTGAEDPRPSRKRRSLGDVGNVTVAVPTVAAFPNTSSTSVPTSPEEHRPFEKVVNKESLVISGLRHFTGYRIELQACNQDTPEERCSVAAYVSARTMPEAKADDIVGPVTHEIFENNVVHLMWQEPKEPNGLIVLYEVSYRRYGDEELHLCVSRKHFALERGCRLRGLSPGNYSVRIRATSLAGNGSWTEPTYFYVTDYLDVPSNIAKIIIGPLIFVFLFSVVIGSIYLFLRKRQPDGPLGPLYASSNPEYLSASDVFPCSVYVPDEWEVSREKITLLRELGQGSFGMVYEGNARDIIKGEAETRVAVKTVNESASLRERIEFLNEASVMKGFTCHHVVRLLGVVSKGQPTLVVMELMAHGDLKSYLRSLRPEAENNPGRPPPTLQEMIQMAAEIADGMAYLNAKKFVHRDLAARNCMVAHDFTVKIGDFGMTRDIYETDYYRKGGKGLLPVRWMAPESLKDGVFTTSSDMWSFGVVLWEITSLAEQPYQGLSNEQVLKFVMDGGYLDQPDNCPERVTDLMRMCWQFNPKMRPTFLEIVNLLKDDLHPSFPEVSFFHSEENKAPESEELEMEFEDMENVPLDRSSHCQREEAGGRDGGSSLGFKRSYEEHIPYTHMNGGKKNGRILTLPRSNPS
UniProt P15208, residues 28-1372: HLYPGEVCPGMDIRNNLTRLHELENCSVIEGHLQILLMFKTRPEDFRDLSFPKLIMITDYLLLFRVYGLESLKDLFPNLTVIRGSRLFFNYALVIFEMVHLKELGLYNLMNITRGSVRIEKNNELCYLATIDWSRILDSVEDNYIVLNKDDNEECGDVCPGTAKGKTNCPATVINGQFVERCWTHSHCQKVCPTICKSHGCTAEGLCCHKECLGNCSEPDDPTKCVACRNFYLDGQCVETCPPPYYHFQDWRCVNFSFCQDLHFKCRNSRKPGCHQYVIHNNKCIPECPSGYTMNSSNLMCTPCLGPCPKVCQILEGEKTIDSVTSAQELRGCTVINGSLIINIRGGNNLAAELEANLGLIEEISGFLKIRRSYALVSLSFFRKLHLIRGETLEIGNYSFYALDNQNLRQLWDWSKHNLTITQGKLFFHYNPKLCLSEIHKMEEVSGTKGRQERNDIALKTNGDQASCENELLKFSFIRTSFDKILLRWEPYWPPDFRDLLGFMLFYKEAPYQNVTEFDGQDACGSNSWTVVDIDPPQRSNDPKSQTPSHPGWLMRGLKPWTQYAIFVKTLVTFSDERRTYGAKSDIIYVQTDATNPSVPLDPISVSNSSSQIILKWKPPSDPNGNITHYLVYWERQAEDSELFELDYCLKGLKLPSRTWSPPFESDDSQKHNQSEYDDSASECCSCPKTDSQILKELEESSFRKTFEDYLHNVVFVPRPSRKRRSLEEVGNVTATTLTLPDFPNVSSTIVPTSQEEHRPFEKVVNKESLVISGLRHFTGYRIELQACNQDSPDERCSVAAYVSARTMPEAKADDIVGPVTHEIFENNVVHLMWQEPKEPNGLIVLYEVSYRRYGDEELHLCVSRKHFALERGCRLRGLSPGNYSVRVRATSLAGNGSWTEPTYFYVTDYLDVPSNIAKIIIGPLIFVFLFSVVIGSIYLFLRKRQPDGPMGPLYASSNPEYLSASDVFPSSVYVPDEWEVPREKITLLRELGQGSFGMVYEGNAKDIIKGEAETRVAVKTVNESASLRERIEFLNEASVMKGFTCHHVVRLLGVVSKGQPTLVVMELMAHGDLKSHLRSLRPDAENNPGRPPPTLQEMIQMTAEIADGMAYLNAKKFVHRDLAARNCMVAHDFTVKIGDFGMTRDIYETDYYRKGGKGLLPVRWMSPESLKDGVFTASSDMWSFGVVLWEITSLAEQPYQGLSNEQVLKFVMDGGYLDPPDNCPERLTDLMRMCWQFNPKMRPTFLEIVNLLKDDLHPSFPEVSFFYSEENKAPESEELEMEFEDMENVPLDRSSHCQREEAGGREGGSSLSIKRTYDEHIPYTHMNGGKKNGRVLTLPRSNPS
UniProt P08069, residues 31-1367: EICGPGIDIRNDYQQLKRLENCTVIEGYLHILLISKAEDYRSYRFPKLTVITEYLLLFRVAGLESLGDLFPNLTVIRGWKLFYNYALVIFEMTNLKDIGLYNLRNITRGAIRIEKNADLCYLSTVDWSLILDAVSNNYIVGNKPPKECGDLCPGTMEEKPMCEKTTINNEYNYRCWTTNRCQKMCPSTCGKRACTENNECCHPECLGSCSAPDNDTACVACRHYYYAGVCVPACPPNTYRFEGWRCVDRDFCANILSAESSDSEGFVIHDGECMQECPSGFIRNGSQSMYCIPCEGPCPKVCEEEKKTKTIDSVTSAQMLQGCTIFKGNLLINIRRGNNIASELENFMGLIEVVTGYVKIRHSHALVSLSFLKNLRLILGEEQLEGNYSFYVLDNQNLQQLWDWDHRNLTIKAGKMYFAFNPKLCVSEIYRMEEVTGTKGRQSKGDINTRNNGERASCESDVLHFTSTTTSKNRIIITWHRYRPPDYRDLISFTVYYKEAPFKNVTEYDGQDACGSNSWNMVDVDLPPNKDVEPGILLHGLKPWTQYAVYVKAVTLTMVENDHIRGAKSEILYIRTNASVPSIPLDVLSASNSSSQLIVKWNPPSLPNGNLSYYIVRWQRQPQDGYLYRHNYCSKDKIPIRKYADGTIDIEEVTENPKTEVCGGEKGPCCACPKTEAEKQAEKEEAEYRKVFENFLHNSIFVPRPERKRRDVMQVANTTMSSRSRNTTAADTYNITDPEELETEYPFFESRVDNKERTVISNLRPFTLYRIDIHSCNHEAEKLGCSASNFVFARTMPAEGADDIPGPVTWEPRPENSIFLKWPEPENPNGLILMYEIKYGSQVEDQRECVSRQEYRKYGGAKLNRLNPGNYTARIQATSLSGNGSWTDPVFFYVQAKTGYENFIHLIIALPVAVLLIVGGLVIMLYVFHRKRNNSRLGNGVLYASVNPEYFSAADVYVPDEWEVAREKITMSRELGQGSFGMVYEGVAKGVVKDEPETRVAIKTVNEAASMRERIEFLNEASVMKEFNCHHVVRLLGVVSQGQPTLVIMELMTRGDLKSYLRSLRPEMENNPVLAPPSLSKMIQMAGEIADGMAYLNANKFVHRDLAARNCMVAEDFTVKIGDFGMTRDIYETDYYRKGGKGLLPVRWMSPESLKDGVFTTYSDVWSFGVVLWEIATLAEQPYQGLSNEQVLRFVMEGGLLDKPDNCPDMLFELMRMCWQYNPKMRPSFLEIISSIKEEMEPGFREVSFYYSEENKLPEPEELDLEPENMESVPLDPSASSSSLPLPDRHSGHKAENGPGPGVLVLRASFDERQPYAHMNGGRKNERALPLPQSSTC

These are yes or no findings as the source states them, for the method shown. Binding seen in cells or lysates may run through a third protein. Some entries that bind do so weakly or less than the wild type. Sequences can lack the tags named with a protein.

Experiment [1] addresses T1, Flag-tagged osteocalcin (Flag-OCN protein) (UniProt P86546).
T1 sequence: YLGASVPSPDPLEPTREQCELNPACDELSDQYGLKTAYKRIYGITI
Nature of the experiment: co-IP; primary hepatocytes treated with Flag-tagged OCN protein, washed with cold PBS, cross-linked with DSP at 4 °C for 2 h; lysates IPed with anti-Flag resin and blotted for endogenous IR and IGF1R; only the target purified.

Experiment [2] has as its target T1, Flag-tagged osteocalcin (Flag-OCN protein). Nature of the experiment: co-IP; HEK293 cells transfected with V5-IGF1R or GFP-IR, two days later treated with Flag-tagged OCN protein, washed with cold PBS, cross-linked with DSP at 4 °C for 2 h; lysates IPed with anti-Flag resin and blotted; only the target purified.
Experiment [3] has as its target T2, Flag-GPRC6A (G protein-coupled receptor family C group 6 member A) (UniProt Q5T6X5).
T2 sequence: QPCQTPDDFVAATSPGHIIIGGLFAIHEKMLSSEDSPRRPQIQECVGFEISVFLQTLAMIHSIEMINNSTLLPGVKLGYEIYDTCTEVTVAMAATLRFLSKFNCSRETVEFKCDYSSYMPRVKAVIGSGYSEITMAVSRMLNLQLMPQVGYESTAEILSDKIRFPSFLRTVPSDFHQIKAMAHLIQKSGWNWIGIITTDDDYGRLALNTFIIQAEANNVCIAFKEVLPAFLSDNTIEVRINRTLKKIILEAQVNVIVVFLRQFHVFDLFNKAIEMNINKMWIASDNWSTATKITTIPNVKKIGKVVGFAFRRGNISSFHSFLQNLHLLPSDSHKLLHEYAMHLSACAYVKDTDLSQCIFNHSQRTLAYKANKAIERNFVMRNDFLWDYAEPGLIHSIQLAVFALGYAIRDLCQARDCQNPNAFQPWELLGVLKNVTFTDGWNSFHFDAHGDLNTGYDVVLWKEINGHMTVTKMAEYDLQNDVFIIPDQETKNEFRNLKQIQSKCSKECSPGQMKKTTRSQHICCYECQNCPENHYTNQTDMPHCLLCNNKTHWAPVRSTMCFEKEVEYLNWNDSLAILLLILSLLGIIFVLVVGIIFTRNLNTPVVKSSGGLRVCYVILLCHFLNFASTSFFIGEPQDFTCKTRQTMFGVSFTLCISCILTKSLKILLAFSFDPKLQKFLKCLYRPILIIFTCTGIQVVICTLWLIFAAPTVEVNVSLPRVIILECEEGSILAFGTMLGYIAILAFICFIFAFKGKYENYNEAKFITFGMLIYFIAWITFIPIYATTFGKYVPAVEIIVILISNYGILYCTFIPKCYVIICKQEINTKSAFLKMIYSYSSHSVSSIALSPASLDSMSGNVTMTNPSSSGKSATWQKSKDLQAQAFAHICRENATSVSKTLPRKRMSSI
Nature of the experiment: co-IP; HEK293 cells transfected with V5-tagged IGF1R and Flag-GPRC6A plasmids; lysates IPed with anti-Flag resin and blotted.

Regarding “endogenous IGF1R (insulin-like growth factor 1 receptor, primary hepatocytes) (from UniProt Q60751 31-1373)”, the binding entry in experiment [1] is reported as “binds”.
Take “GFP-IR (insulin receptor) (from UniProt P06213 28-1382)”: the binding result in experiment [2] was “binds”.
Take “endogenous IR (insulin receptor, primary hepatocytes) (from UniProt P15208 28-1372)”: in experiment [1], the binding entry is listed as “binds”.
Turning to “V5-tagged IGF1R (insulin-like growth factor 1 receptor) (from UniProt P08069 31-1367)”, the binding entry in experiment [3] and in experiment [2] was “binds” in each case.
